Experimental data from PubChem BioAssay AID1487 (National Center for Advancing Translational Sciences (NCATS), 2009).
The list shows a part of the results. Shown are side measurements of this screen, not its main read-out; they come without a call. Most of these compounds were active or inconclusive in the main read-out, so they are no random draw. The note in brackets gives the kind of curve behind each potency; many fits are weak.

Test: qHTS Assay for Modulators of Lamin A Splicing
Conditions: HeLa LMNA splicing GFP/RFP minigene ratio, 48 h
In short: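 S3 HeLa cells stably expressing lamin A-EGFP splicing minigene plus DsRed2, 600 cells/well, 48 h compound exposure at 37C. Laser-scanning cytometry; analysed as GFP (500-530 nm)/RFP (575-640 nm) total intensity ratio; 0.5% DMSO vehicle.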

[1] = measured here: RFP viability control channel
[2] = measured here: GFP splicing reporter channel

Structure (SMILES)	AC50 [1]	AC50 [2]
O=C(c1ccccc1Cl)N1CCc2ccccc2C1	35.5 µM [rising, single point]	
O=C(CSCc1ccccc1Cl)NCc1ccc(Cl)c(Cl)c1	7.08 µM [rising, partial curve, poor fit]	
CCOC(=O)C(C)Oc1ccc(OCc2ccccc2)cc1 (stereo not drawn)	0.02 µM [falling, full curve, poor fit]	0.447 µM [falling, partial curve]
COC1OC(CO)C(OC2OC(C(=O)O)C(OC3OC(COS(=O)(=O)O)C(OC4OC(C(=O)O)C(OC5OC(CO)C(OC6OC(C(=O)O)C(OC7OC(COS(=O)(=O)O)C(OC8OC(C(=O)O)=C[C@H](O)C8OS(=O)(=O)O)C(O)C7NC(C)=O)[C@@H](O)C6O)C(O)C5NC(C)=O)[C@@H](O)C4O)C(O)C3NC(C)=O)[C@@H](O)C2O)C(O)C1NC(C)=O (stereo partly drawn)		3.55 µM [rising, single point]
Cc1ccc(N(CC(=O)N/N=C/c2cccnc2)S(=O)(=O)c2ccccc2)cc1	0.1 µM [rising, full curve, poor fit]	
CCOC(=O)c1cc(CC)sc1NC(=O)COC(=O)c1cc[n+]([O-])cc1	0.0794 µM [rising, full curve, poor fit]	
Cc1[nH]c2ccccc2c1C(=O)C(=O)N1CCCc2ccccc21	0.0398 µM [rising, full curve, poor fit]	
Cc1[nH]c2ccccc2c1/C=N/NC(=O)CNC(=O)c1ccc2c(c1)OCO2	17.8 µM [rising, partial curve, poor fit]	
Cc1cc(C)c2c(N)c(S(=O)(=O)c3ccccc3)sc2n1	12.6 µM [rising, partial curve]	15.8 µM [rising, partial curve, poor fit]
COc1ccc(S(=O)(=O)NCc2csc(C)n2)cc1	7.08 µM [rising, single point]	
O=C(CSCc1nc2ccccc2[nH]1)Nc1ccc(Oc2ccccc2)cc1	17.8 µM [rising, single point]	
c1ccc(-c2cc(CSc3nc4ccccc4[nH]3)on2)cc1	10 µM [rising, partial curve]	
COc1ccc(C2NC(=O)NC(C)=C2C(=O)OCc2ccc3c(c2)OCO3)cc1OC (stereo not drawn)	17.8 µM [falling, single point]	
Oc1c(C(c2ccccc2Cl)N2CCOCC2)sc2nc(-c3ccco3)nn12 (stereo not drawn)	3.55 µM [rising, single point]	
Cc1ccc(C(=O)N2CCN(c3ccc(F)cc3)CC2)cc1NC(=O)c1nsc2ccccc12	2.82 µM [rising, partial curve]	0.708 µM [rising, full curve]

Individual results from above.
AC50 [1] with c1ccc(-c2cc(CSc3nc4ccccc4[nH]3)on2)cc1 reads 10 µM [rising, partial curve]
AC50 [1] with Cc1[nH]c2ccccc2c1/C=N/NC(=O)CNC(=O)c1ccc2c(c1)OCO2 reads 17.8 µM [rising, partial curve, poor fit]
